Patent publication US20080255139A1, “Use Of 4- (4-Methylpiperazin-1-Ylmethyl)-N-[4-Methyl-3-(4-(Pyridin-3-Yl)Pyrimidin-2-Ylamino)Phenyl]-Benzamide to Inhibit the Tyrosine Kinase Receptor C-Fms” (priority 2004, published 2008)

Columns and labels:
FDC-cfms cells = assay: cells; settings: read-out: IC50, growth of IL-3 stimulated cultures
[1] = test system: FDC-cfms cells (M-CSF dependent, c-fms); assay: cells; settings: read-out: IC50, growth of M-CSF stimulated cells
[2] = molecular target: PDGF receptor tyrosine kinase; settings: read-out: IC50 PDGF receptor tyrosine kinase; cited from earlier work

In the case of `Cc1ccc(NC(=O)c2ccc(CN3CCN(C)CC3)cc2)cc1Nc1nccc(-c2cccnc2)n1` [Compound I, 4-(4-methylpiperazin-1-ylmethyl)-N-[4-methyl-3-(4-(pyridin-3-yl)pyrimidin-2-ylamino)phenyl]-benzamide], the IC50 (FDC-cfms cells) is given as 5900 nM, the IC50 [1] is given as 1100 nM and the IC50 [2] is given as 250 nM.
